Measured values published in patent publication US8551921B2, “Method for determining the toxicity of an environmental or chemical sample” (priority 2000, dated 2013).
“And” between values parts separate entries of the source, which are not always exact repeats. Equal values may be shown once. Where a name gives a salt, the structure may show the parent alone.

How the values were obtained:
microorganism no. 7 = test: MARA indicator device toxic fingerprint, microorganism no. 7; conditions: Microbial Toxic Concentration; incubation time 16 h; HCl
Method: (§1) • dispense 150 μl of growth medium with indicator in each well • add a concentration gradient of the chemical to be tested to rows B-H in a MARA plate (i.e. an indicator device according to the present invention) • incubate for 16 h • read absorbance values; and • analyse with software.
(§2) Microbial responses to different chemicals was estimated by kinetic measurements of their growth using the Labsystem automated IEMS reader. A computer software that could monitor incubation temperatures, reading intervals, and automatically transfer OD data to a computer was developed. A growth medium containing 0.05% peptone, 0.011% bromothymol blue (BTB), 1% sodium chloride and 0.3% glucose was added to all wells. The glucose acts as a carbon source, and during growth the microorganism will break down the glucose and produce acids, that will turn the initially blue indicator to yellow. Each microplate contains 12 columns and 8 rows, and thus in each plate, 11 lyophilized microbial strains were used (one for each column, the 12th column was used as negative control). […] In order to avoid drying out of the plates during the incubation, one drop of sterile mineral oil was added to each well. The plate was then incubated in the IEMS spectrophotometer and the absorbance value from each well was measured every second hour during 48 h. […]

[1] = system: 11 different microbial strains
Method: as §1, §2

Daphnia = conditions: IC50-values, established assay; cited from earlier work
E. coli = conditions: IC50-values, established assay; cited from earlier work
[2] = system: Photobacterium phosphoreum; conditions: IC50-values, established assay; cited from earlier work

Structure (SMILES) | Toxic fingerprint: MTC value for microorganism no. 7 (microorganism no. 7) | Inhibitory concentrations by method: MARA MTCmin [1] [mg/mL] | Inhibitory concentrations by method: MARA MTCmean ([1]; 11 microbial strains (panel, species not named)) [mg/mL] | Inhibitory concentrations by method: Daphnia (Daphnia) [mg/mL] | Inhibitory concentrations by method: E. coli (E. coli) [mg/mL] | Inhibitory concentrations by method: Microtox [2] [mg/mL]
Cc1ccccc1C(OCCN(C)C)c1ccccc1 (stereo not drawn) [Orphenadrin HCl] | 0.133 and 0.147 | 0.100 | 0.139 | 0.011 | 0.701 | 0.119
CSc1ccc2c(c1)N(CCC1CCCCN1C)c1ccccc1S2 (stereo not drawn) [Tioridazin HCl] | – | – | – | 0.005 | 0.059 | 0.008
